According to PubChem BioAssay AID651550 (National Center for Advancing Translational Sciences (NCATS), 2012):
The whole screen tested about 360,000 compounds, of which about 1,100 (0.31%) were called active. The shares of active, inactive and inconclusive entries below differ from those in the screen. Cut-off read from the data, not from the text of the source: active = activity change below about -80%; inconclusive = mostly about -51% to -80%; inactive = weaker than that.

target: RAC-alpha serine/threonine-protein kinase (Homo sapiens) (UniProt P31749); test: HTS Assay for Inhibitors of Akt Phophorylation: Primary Screen; settings: Neuro2A IGF-stimulated pAkt S473 HTRF, 20 min; at 50 µM, stronger effect = lower value
Excerpt: The serine/threonine protein kinase Akt (protein kinase B) regulates various cellular processes, including cell survival, growth, proliferation, migration and differentiation. It has been well established that Akt is activated through two essential steps involving membrane translocation and phosphorylation. Cytosolic Akt is recruited to the plasma membrane via the interaction between the PH domain and membrane PIP3 produced by phosphoinositide-3 kinase (PI3K) upon growth factor receptor stimulation. The membrane-Akt interaction results in conformational changes of Akt, enabling its activation through phosphorylation at T308 in the kinase domain and at S473 in the C-terminal hydrophobic motif by PDK1 and mTOR-rictor complex (mTORC2), respectively. […] These findings indicate that S473 phosphorylation, as an important modulator of Akt activation, may be a valuable drug target for cell growth, survival, proliferation and differentiation. These inhibitors also may have significant therapeutic potential with fewer side effects, especially for the conditions involving hyperactive Akt signaling, such as cancer and Alzheimer's disease.
To this end, a miniaturized assay was developed to be screened against the Molecular Libraries Small Molecule Repository (MLSMR).
NIH Chemical Genomics Center [NCGC]
NIH Molecular Libraries Probe Centers Network [MLPCN]
Assay Submitter (PI): Hee-Yong Kim, National Institute on Alcohol Abuse and Alcoholism
3 uL of Neuro2A cell suspension in DMEM containing 0.5% FBS and […] antibiotics mix was plated in a white solid bottom tissue culture-treated 1536-well plate (Greiner Bio-One, Monroe, NC) at 4,500 cells per well and incubated overnight at 37 deg C. 23 nL/well of compound solutions in DMSO was added with Pintool transfer (Kalypsis, San Diego, CA) at single […] final concentration. Then, the cells were stimulated with 1.5 uL of IGF (6 nM final concentration) and incubated at 37 deg C for 20 min. The reaction was terminated by the addition of 1.5 uL blocking reagent mixed with lysis buffer (1:25 correspondingly) provided with HTRF(R) Phospho Akt (Ser473) kit (Cisbio US, Bedford, MA), with following incubation for 50 min at ambient temperature. The detection HTRF conjugates from the kit were prepared according to the protocol, pre-mixed 1:1 prior to dispensing, and 2 uL/well was added with BioRAPTR FRD dispenser (Beckman Coulter). The assay plates were incubated for 24 hours at ambient temperature, and the HTRF fluorescence was measured using Envision plate reader (PerkinElmer) with excitation at 330nm, emission at 615nm (Eu(3)-Cryptate donor signal) and 665nm (d2 acceptor signal). The ratio of […] was calculated for each well.
% is set by controls: 0 for no effect and ±100 for the full control effect.

| SMILES | activity change |
| --- | --- |
| CCOC(=O)C1=Nc2ccccc2/C1=C\c1c(O)n(C)c(=O)n(C)c1=O | inactive |
| Cc1ccc(N2C(=O)NC(=O)/C(=C\C=C\c3ccco3)C2=O)cc1C | inactive |
| COc1ccccc1CC(=O)N1CCN(CCc2ccccc2)CC1 | inactive |
| CN1CCc2nc3ccc(F)cc3c(C(N)=O)c2C1 | active: -99.4% |
| CC(=NCCCN1CCCCC1)c1c(O)n(Cc2ccccc2)c(=O)[nH]c1=O | active: -116% |
| CCSc1nnc([C@@H](N)Cc2ccccc2)o1 | inconclusive: -52.8% |
| O=C(Cc1ccccc1)N1CCN(Cc2ccccc2Cl)CC1 | inactive |
| COc1cccc(C(=O)C2CCCN(Cc3cccc(C)n3)C2)c1 (stereo not given) | inactive |
| O=C(Nc1ccccc1)Oc1ccccc1 | inconclusive: -65.4% |
| CCCCOC(=O)C1=C(N)OC2=C(C(=O)CCC2)[C@]12C(=O)N(C)c1ccccc12 | inactive: -14.4% |
| C=CCn1c(O)c(C(CC)=NCCCO)c(=O)[nH]c1=O | inconclusive: -57.4% |
| CC(C)=CCSc1nnc([C@@H](N)Cc2c[nH]c3ccccc23)o1 | inconclusive: -64% |
| O=C(COc1ccc(S(=O)(=O)N2CCCCC2)cc1)N1CCN(Cc2ccccc2)CC1 | inactive: 2.22% |
| CCOC(=O)C1CCN(/C=C2\C(=O)NC(=S)N(CC)C2=O)CC1 | inactive |
| NCC(CC(=O)O)c1ccc(Cl)cc1 (stereo not given) | active: -108% |

3 of these compounds in another layout.
SMILES | activity change
C=CCn1c(O)c(C(CC)=NCCCO)c(=O)[nH]c1=O | inconclusive: -57.4%
CC(C)=CCSc1nnc([C@@H](N)Cc2c[nH]c3ccccc23)o1 | inconclusive: -64%
O=C(COc1ccc(S(=O)(=O)N2CCCCC2)cc1)N1CCN(Cc2ccccc2)CC1 | inactive: 2.22%
